Reference: paper PMC8905165
Results are given in words; binding and its absence hold for the method and conditions named. Some results given as binding are weak or reduced against the parent protein; the word gives no strength.

Protein sequences, listed by entry. Tags and fused reporters are not part of them. Residues count along the entry.
UniProt Q02224, residues 1-483: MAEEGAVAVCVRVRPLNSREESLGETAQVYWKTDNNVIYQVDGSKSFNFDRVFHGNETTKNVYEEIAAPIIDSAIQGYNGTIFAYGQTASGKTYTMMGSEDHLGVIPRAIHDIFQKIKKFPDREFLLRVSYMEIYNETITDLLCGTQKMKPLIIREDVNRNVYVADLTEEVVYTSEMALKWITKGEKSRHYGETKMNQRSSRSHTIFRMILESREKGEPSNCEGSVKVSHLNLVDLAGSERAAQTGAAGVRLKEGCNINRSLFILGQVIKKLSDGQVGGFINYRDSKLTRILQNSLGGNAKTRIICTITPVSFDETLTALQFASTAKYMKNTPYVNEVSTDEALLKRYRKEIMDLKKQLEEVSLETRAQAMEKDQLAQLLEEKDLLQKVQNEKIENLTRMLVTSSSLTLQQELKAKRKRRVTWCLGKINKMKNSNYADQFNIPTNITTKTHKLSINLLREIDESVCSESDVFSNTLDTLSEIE

Biological target: CENP-E483-2mNeon (human) (UniProt Q02224)
Test: native gel or EMSA; native PAGE of purified CENP-E483-2mNeon; monomer to dimer; both purified

- binding: binds weakly
Substance: CENP-E483-2mNeon (from UniProt Q02224 1-483) (domain or fragment)
